Measurements reported in patent US11396533 (dated 2022).

Assay: general procedure: Fmoc solid-phase peptide synthesis; CTC resin; DIC/OxymaPure
Conditions: whole synthesis; for crude HPLC purity / crude yield: scale of the general procedure 0.25 g of Wang resin (0.75 mmol/g)

Substance | crude mass [mg] | crude HPLC purity [%] | crude yield [%]
Fmoc-Asp(OtBu)^9-Val-Ser(tBu)-Ser(tBu)-Tyr(tBu)-Leu-Glu(OtBu)-Gly^16-OH | 330 | 91 | 90
Boc-His(Trt)^1-Aib-Glu(OtBu)-Gly-Thr(tBu)-Phe-Thr(tBu)-Ser(ψ^Me,Mepro)^8-OH | 960 |  | 77
Boc-His(Trt)^1-Ala-Glu(OtBu)-Gly-Thr(tBu)-Phe-Thr(tBu)-Ser(ψ^Me,Mepro)^8-OH | 270 | 87 | 80
